Assay results from publication PMC4894417, “Quantitative High-Throughput Profiling of Environmental Chemicals and Drugs that Modulate Farnesoid X Receptor” (Scientific Reports, 2014).

Test system: FXR-UAS-bla HEK293T cells

COC(=O)C1=C(C)NC(C)=C(C(=O)OC)C1c1ccccc1[N+](=O)[O-] [Nifedipine]
Cytotoxicity IC50: Inactive
